Experimental data published in article PMC12019842.

The chains behind the UniProt entries cited, without tags or fusion partners.
UniProt P50752: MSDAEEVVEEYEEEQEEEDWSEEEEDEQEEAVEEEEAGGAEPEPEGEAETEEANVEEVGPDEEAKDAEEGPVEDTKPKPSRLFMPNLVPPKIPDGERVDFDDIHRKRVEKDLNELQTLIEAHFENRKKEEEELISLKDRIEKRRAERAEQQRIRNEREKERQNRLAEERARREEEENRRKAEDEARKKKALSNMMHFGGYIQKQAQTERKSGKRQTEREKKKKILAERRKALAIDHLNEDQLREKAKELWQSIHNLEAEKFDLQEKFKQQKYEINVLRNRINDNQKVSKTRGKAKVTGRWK
UniProt O54833: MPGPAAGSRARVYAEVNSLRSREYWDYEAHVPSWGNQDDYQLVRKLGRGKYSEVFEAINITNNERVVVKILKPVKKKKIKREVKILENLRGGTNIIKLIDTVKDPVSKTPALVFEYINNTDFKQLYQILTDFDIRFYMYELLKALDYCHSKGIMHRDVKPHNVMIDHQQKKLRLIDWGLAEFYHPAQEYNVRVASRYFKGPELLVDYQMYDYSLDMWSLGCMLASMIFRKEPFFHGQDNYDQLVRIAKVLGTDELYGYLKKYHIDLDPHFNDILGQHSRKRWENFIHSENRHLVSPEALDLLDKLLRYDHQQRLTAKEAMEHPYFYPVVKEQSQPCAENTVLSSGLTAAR
UniProt Q7TPR4: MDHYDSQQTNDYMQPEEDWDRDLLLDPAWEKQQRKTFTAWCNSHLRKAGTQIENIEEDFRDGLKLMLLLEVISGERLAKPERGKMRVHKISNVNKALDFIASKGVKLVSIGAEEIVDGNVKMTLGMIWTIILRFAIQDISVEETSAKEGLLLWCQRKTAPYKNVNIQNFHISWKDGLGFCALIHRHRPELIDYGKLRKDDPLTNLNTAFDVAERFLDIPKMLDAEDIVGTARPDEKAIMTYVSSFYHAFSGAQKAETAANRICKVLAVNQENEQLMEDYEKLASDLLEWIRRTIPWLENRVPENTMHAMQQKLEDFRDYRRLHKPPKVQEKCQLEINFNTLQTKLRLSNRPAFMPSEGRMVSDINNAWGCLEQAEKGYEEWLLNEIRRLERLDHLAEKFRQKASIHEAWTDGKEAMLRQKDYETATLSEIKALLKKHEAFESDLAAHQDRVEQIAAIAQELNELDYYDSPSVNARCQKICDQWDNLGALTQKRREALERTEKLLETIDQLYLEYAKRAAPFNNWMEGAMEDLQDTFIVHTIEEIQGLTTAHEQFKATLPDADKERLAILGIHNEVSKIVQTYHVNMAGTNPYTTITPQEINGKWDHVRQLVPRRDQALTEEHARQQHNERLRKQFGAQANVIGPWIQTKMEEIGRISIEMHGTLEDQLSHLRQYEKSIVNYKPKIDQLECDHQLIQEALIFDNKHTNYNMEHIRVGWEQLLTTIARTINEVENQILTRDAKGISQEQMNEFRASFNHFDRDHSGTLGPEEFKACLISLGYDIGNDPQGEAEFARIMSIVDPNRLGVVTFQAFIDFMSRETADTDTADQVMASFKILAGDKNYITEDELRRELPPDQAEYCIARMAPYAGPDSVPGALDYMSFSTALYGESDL
UniProt Q60737: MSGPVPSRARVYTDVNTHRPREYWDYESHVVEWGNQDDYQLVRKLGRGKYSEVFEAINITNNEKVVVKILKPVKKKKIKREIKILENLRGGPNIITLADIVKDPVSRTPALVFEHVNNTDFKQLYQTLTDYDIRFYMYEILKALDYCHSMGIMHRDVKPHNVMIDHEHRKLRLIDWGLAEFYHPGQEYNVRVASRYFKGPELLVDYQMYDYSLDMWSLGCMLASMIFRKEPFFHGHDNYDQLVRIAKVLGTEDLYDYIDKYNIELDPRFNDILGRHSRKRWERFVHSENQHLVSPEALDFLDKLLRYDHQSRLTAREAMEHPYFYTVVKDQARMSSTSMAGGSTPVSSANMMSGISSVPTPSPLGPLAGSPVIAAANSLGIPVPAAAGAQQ
UniProt P62631: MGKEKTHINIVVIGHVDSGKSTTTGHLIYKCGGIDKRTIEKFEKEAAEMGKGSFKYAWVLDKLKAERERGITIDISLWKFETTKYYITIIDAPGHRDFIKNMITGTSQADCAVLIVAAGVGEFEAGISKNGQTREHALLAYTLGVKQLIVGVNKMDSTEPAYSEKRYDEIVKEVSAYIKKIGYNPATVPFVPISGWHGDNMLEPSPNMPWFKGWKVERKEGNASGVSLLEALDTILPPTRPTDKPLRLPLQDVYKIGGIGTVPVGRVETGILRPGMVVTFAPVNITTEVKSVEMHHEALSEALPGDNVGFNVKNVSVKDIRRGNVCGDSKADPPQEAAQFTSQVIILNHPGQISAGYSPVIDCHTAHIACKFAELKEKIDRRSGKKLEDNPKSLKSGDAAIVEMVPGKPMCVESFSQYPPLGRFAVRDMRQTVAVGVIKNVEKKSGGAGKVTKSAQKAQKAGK
UniProt P10922: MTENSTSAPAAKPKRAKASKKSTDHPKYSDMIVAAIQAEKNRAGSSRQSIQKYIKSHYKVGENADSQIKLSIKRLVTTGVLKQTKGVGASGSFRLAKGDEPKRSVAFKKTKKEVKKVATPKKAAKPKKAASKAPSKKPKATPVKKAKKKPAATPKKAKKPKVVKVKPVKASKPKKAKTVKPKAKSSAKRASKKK
UniProt Q62234: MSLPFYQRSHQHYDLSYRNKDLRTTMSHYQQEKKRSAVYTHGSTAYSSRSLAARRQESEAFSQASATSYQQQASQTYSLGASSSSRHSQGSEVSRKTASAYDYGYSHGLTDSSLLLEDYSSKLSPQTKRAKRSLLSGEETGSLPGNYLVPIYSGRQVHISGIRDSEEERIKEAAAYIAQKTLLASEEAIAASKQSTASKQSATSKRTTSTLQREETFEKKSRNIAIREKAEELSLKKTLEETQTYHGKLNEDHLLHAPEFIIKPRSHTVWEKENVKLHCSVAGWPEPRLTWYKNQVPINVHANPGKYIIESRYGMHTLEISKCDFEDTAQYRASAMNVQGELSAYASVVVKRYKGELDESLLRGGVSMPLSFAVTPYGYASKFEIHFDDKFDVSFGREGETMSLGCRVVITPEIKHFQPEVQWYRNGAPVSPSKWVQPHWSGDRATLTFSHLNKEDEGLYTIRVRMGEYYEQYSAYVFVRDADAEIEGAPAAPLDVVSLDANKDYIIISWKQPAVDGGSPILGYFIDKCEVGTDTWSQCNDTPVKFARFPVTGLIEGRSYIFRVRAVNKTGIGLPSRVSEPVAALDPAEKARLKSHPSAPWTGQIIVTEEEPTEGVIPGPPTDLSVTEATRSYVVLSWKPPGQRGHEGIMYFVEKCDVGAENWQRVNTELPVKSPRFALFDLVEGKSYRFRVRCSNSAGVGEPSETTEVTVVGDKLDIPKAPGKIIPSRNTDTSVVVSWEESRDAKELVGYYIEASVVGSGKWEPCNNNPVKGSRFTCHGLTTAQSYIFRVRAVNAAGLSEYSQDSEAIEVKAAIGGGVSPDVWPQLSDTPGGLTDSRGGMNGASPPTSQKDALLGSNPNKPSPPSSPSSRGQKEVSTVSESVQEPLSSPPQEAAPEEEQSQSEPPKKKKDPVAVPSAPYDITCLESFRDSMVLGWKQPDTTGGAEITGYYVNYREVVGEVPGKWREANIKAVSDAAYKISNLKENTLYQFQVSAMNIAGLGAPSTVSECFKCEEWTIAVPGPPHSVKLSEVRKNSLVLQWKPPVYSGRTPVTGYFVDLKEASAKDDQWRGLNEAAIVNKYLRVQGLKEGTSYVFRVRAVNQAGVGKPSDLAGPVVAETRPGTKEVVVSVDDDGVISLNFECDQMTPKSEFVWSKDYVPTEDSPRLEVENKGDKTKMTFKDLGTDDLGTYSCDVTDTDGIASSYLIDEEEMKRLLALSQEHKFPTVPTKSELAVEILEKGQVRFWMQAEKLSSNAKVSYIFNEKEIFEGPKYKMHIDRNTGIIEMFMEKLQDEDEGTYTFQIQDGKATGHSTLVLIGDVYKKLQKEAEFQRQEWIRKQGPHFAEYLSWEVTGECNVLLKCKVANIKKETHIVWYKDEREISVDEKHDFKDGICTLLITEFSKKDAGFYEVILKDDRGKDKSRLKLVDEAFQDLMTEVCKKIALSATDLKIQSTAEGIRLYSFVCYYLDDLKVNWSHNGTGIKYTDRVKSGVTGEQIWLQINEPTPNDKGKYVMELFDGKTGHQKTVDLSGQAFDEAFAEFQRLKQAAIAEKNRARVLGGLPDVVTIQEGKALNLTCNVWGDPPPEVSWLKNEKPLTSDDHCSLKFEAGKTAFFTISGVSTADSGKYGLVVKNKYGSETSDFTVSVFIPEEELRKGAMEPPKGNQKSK
UniProt Q9CW03: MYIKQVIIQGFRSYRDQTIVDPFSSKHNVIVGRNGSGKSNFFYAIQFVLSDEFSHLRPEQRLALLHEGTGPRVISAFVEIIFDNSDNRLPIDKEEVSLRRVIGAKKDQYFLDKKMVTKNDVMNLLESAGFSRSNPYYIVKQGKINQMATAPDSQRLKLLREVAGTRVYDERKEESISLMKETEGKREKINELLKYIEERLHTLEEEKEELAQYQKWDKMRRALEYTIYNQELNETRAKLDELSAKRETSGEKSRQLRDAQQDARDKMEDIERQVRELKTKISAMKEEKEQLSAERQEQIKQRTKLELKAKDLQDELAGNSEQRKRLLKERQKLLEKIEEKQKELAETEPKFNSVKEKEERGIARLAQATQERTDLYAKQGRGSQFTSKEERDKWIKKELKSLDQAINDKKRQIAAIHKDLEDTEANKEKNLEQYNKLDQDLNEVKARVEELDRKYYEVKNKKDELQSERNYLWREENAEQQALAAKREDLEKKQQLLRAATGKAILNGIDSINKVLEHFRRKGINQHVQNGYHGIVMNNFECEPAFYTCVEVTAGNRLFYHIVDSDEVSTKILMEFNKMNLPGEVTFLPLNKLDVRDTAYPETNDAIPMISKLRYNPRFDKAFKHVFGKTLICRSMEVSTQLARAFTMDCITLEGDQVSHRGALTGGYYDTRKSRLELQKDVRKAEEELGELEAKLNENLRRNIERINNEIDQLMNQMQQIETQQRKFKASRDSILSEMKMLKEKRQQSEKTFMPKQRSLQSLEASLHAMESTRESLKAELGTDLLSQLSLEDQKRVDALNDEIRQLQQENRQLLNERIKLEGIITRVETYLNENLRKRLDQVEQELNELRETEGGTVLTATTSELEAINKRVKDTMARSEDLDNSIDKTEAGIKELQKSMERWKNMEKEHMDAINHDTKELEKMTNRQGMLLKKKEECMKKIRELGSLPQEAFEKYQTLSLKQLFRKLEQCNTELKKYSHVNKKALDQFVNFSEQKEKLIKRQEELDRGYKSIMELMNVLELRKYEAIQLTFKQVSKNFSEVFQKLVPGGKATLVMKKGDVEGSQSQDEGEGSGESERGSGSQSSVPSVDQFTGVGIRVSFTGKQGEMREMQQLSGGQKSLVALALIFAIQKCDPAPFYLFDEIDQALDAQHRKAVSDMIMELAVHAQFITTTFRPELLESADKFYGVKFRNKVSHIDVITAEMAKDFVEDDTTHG

Columns and labels:
[1] = biological target: cardiac troponin T (Tnnt2) (mouse (endogenous in mouse heart)) (UniProt P50752); test: affinity purification with mass spectrometry; Co-IP from frozen mouse heart homogenate (three mice) with anti-Troponin T-C (CT3) or anti-CSNK2A2 antibody, IgG as negative control; lysis buffer 10 mM Hepes, 10 mM potassium chloride, 0.1% Triton X-100, pH 7.4; antibody-antigen incubation 18 h at 4 °C; elute against unbound fraction and IgG elute by DIA-MS (FDR <0.05, log2FC > 1)
[2] = biological target: casein kinase II subunit alpha (Csnk2a2) (mouse (endogenous in mouse heart)) (UniProt O54833); test: as above

binding [1]	binding [2]	Substance
binds	–	Actn1 (from UniProt Q7TPR4 1-892)
–	binds	Csnk2a1 (from UniProt Q60737 1-391) (enzyme)
–	binds	Eef1a2 (from UniProt P62631 1-463)
–	binds	H1-0 (from UniProt P10922 1-194)
binds	–	Macf1 (from UniProt Q9QXZ0 1-7354)
binds	–	Myom1 (from UniProt Q62234 1-1667)
–	binds	Smc3 (from UniProt Q9CW03 1-1217)

No constants are given. Whether binding was seen depends on the method and setting. In cells and extracts the contact can be indirect. A yes stands for co-enrichment or nearness to the bait. Other partners may have been found.
